Paper PMC7265341, “Quantifying CDK inhibitor selectivity in live cells” (Nature Communications, 2020)
“And” between values parts separate entries of the source, which are not always exact repeats. Equal values may be shown once. The source gives many values for each of these; only a part stands here.

Protein sequences, listed by entry. Tags and fused reporters are not part of them. Lines headed by an entry give the natural chain unless they say otherwise; changes in a name come on top.
UniProt P50613: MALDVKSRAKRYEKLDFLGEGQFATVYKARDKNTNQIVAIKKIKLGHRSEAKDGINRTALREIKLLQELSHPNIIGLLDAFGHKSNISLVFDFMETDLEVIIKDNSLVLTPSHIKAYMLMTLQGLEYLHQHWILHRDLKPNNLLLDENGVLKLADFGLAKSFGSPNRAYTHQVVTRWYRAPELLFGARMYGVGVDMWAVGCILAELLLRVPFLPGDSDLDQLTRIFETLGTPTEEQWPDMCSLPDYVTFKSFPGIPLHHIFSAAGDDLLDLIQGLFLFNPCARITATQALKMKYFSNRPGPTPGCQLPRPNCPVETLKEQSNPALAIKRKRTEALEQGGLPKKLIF
UniProt Q00534, whole entry: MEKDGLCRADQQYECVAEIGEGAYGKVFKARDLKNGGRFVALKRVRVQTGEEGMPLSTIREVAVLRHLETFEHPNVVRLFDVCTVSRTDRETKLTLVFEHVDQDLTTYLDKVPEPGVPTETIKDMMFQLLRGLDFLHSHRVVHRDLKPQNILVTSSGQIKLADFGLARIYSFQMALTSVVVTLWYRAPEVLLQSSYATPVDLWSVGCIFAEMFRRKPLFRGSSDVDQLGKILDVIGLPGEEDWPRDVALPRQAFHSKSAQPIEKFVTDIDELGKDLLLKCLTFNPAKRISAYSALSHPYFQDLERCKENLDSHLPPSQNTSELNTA

Tests used:
[1] = target: CDK7 (Homo sapiens, UniProt P50613); assay: Intracellular residence time by cellular washout, CDK7; type: binding; conditions: Panel B; Time (Min) 233.996
Experimental: However, residence times for this and many of the other CDKi’s in our panel have not been reported in cell-free or cellular contexts. […] This condition was selected to ensure adequate target occupancy prior to compound washout. Residence time was then evaluated by a rapid compound washout procedure, followed by addition of energy transfer probe 1. Under these conditions, the rate of the energy transfer signal increase serves as a direct proxy for the loss of the target-CDKi interaction[18],[56],[57].
Residence time was qualitatively assessed via a cellular washout approach, where delayed energy probe association is used as an indirect measurement for the durability of target/compound engagement. […] After 2 h of incubation at 37 °C, the medium was aspirated from the cells and replaced with fresh OptiMEM containing NanoBRET NanoGlo Substrate and Extracellular NanoLuc Inhibitor. […] Occupancy values were plotted as a function of time.
Supplementary Figure 22. […] Residence […]
time was qualitatively assessed by cellular washout as described in the method details and compared to association of energy transfer probe in cells treated with DMSO vehicle. […]
engagement at CDK6 and kinetic selectivity for CDK6 compared to CDK2 and CDK7. BRET ratios were normalized between the maximum BRET value vs BRET value in the absence of tracer. Kinetic traces and individual points are mean of 3 independent experiments ± S.E.M (n = 3). Source data are provided as a […]

[2] = target: CDK6 (Homo sapiens, UniProt Q00534); assay: Intracellular residence time by cellular washout, CDK6; type: binding; conditions: Panel B;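 further: NanoBRET cellular washout in live cells: compound preincubated 2 h at 37 °C, then removed, energy transfer probe association tracked over time versus DMSO vehicle, rising BRET indicating target release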

COCCN1CCN(Cc2ccc(-c3n[nH]c4c3C(=O)c3c(NC(=O)NN5CCOCC5)cccc3-4)cc2)CC1 [RGB286638]
CDK7 [1]: 83.2293 and 71.2925 and 74.5536 | CDK6 occupancy (%) over time after compound washout ([2]; Time (Min) 38.9753): 66.3063 and 62.7586 | CDK6 occupancy (%) over time after compound washout ([2]; Time (Min) 41.9753): 66.2602 and 65.9459 and 64.2529 | CDK6 occupancy (%) over time after compound washout ([2]; Time (Min) 44.9758): 65.8537 and 65.4955 and 64.8276 | CDK6 occupancy (%) over time after compound washout ([2]; Time (Min) 47.9761): 65.935 and 65.6757 and 62.9885 | CDK6 occupancy (%) over time after compound washout ([2]; Time (Min) 50.9766): 65.4471 and 65.4955 and 62.7586 | CDK6 occupancy (%) over time after compound washout ([2]; Time (Min) 53.9771): 65.4471 and 65.1351 and 65.2874 | CDK6 occupancy (%) over time after compound washout ([2]; Time (Min) 56.9772): 65.3658 and 64.9549 and 60 | CDK6 occupancy (%) over time after compound washout ([2]; Time (Min) 59.9777): 65.935 and 64.3243 and 61.3793 | CDK6 occupancy (%) over time after compound washout ([2]; Time (Min) 62.9781): 65.2845 and 65.1351 and 63.2184 | CDK6 occupancy (%) over time after compound washout ([2]; Time (Min) 65.9785): 65.4471 and 65.3153 and 60.5747 | CDK6 occupancy (%) over time after compound washout ([2]; Time (Min) 68.9792): 64.9594 and 65.2252 and 60.5747 | CDK6 occupancy (%) over time after compound washout ([2]; Time (Min) 71.9792): 65.2845 and 65.0451 and 59.7701 | CDK6 occupancy (%) over time after compound washout ([2]; Time (Min) 74.9799): 66.5854 and 64.7748 and 60.1149 | CDK6 occupancy (%) over time after compound washout ([2]; Time (Min) 77.9802): 66.1789 and 63.1531 and 60.4598 | CDK6 occupancy (%) over time after compound washout ([2]; Time (Min) 80.9806): 65.6098 and 62.2522 and 61.2644 | CDK6 occupancy (%) over time after compound washout ([2]; Time (Min) 83.9813): 65.935 and 62.4324 and 59.4253 | CDK6 occupancy (%) over time after compound washout ([2]; Time (Min) 86.9817): 65.2845 and 62.0721 and 57.1264 | CDK6 occupancy (%) over time after compound washout ([2]; Time (Min) 89.9825): 66.5854 and 60.991 and 58.046 | CDK6 occupancy (%) over time after compound washout ([2]; Time (Min) 92.9826): 66.8293 and 61.1712 and 59.6552 | CDK6 occupancy (%) over time after compound washout ([2]; Time (Min) 95.9831): 67.2358 and 60.991 and 61.3793 | CDK6 occupancy (%) over time after compound washout ([2]; Time (Min) 98.9837): 66.748 and 60.9009 and 57.2414 | CDK6 occupancy (%) over time after compound washout ([2]; Time (Min) 101.984): 66.9106 and 60.3604 and 57.8161 | CDK6 occupancy (%) over time after compound washout ([2]; Time (Min) 104.984): 67.3984 and 60.6306 and 59.1954 | CDK6 occupancy (%) over time after compound washout ([2]; Time (Min) 107.985): 67.2358 and 58.6487 and 58.6207 | CDK6 occupancy (%) over time after compound washout ([2]; Time (Min) 110.985): 67.4797 and 58.4685 and 60.3448 | CDK6 occupancy (%) over time after compound washout ([2]; Time (Min) 113.986): 66.9106 and 60.991 and 56.3218 | CDK6 occupancy (%) over time after compound washout ([2]; Time (Min) 116.986): 68.2114 and 57.1171 and 56.4368 | CDK6 occupancy (%) over time after compound washout ([2]; Time (Min) 119.987): 66.8293 and 56.6667 and 57.931 | CDK6 occupancy (%) over time after compound washout ([2]; Time (Min) 122.987): 68.1301 and 56.1261 and 57.4713 | CDK6 occupancy (%) over time after compound washout ([2]; Time (Min) 125.988): 68.1301 and 56.5766 and 52.7586 | CDK6 occupancy (%) over time after compound washout ([2]; Time (Min) 128.988): 67.561 and 56.1261 and 54.4828 | CDK6 occupancy (%) over time after compound washout ([2]; Time (Min) 131.988): 68.374 and 56.5766 and 52.7586 | CDK6 occupancy (%) over time after compound washout ([2]; Time (Min) 134.989): 68.6179 and 57.7478 and 57.3563 | CDK6 occupancy (%) over time after compound washout ([2]; Time (Min) 137.989): 68.6179 and 60.7207 and 55.1724 | CDK6 occupancy (%) over time after compound washout ([2]; Time (Min) 140.99): 68.2927 and 64.8649 and 57.4713 | CDK6 occupancy (%) over time after compound washout ([2]; Time (Min) 143.99): 67.8862 and 65.8559 and 58.2759 | CDK6 occupancy (%) over time after compound washout ([2]; Time (Min) 146.99): 68.5366 and 66.3063 and 51.1494 | CDK6 occupancy (%) over time after compound washout ([2]; Time (Min) 149.991): 68.2927 and 67.3874 and 57.7011 | CDK6 occupancy (%) over time after compound washout ([2]; Time (Min) 152.992, listed as RGB-286638): 68.0488 and 66.5766 and 56.2069 | CDK6 occupancy (%) over time after compound washout ([2]; Time (Min) 155.992): 68.5366 and 67.6577 and 47.3563 | CDK6 occupancy (%) over time after compound washout ([2]; Time (Min) 158.992): 69.1057 and 66.5766 and 51.6092 | CDK6 occupancy (%) over time after compound washout ([2]; Time (Min) 161.993): 68.374 and 66.8469 and 53.5632 | CDK6 occupancy (%) over time after compound washout ([2]; Time (Min) 164.993): 69.0244 and 67.3874 and 56.8965 | CDK6 occupancy (%) over time after compound washout ([2]; Time (Min) 167.994): 68.7805 and 66.7568 and 57.7011 | CDK6 occupancy (%) over time after compound washout ([2]; Time (Min) 170.994): 68.0488 and 66.3063 and 50.1149 | CDK6 occupancy (%) over time after compound washout ([2]; Time (Min) 173.995): 69.2683 and 67.2973 and 47.0115 | CDK6 occupancy (%) over time after compound washout ([2]; Time (Min) 176.995, listed as RGB-286638): 69.6748 and 67.3874 and 59.5402 | CDK6 occupancy (%) over time after compound washout ([2]; Time (Min) 179.995): 68.8618 and 66.9369 and 53.1035 | CDK6 occupancy (%) over time after compound washout ([2]; Time (Min) 182.996): 68.1301 and 67.6577 and 55.8621 | CDK6 occupancy (%) over time after compound washout ([2]; Time (Min) 185.996): 68.6992 and 66.7568 and 57.0115 | CDK6 occupancy (%) over time after compound washout ([2]; Time (Min) 188.996): 69.0244 and 66.3964 and 53.7931 | CDK6 occupancy (%) over time after compound washout ([2]; Time (Min) 191.996): 69.3496 and 66.3964 and 60.3448 | CDK6 occupancy (%) over time after compound washout ([2]; Time (Min) 194.996): 68.5366 and 66.1261 and 58.8506 | CDK6 occupancy (%) over time after compound washout ([2]; Time (Min) 197.996): 68.0488 and 65.2252 and 56.5517 | CDK6 occupancy (%) over time after compound washout ([2]; Time (Min) 200.996): 68.9431 and 65.8559 and 54.4828 | CDK6 occupancy (%) over time after compound washout ([2]; Time (Min) 203.996): 69.1057 and 66.1261 and 51.6092 | CDK6 occupancy (%) over time after compound washout ([2]; Time (Min) 206.996): 68.0488 and 64.8649 and 55.8621 | CDK6 occupancy (%) over time after compound washout ([2]; Time (Min) 209.996): 68.5366 and 65.3153 and 60.8046 | CDK6 occupancy (%) over time after compound washout ([2]; Time (Min) 212.996): 68.0488 and 65.4955 and 54.2529 | CDK6 occupancy (%) over time after compound washout ([2]; Time (Min) 215.996): 67.0732 and 64.1441 and 57.3563 | CDK6 occupancy (%) over time after compound washout ([2]; Time (Min) 218.996): 68.1301 and 66.036 and 53.6782 | CDK6 occupancy (%) over time after compound washout ([2]; Time (Min) 221.996): 67.0732 and 64.5946 and 49.0805 | CDK6 occupancy (%) over time after compound washout ([2]; Time (Min) 224.996): 67.3171 and 64.7748 and 58.046 | CDK6 occupancy (%) over time after compound washout ([2]; Time (Min) 227.996): 66.6667 and 63.964 and 55.2874 | CDK6 occupancy (%) over time after compound washout ([2]; Time (Min) 230.996): 66.748 and 63.964 and 53.4483 | CDK6 occupancy (%) over time after compound washout ([2]; Time (Min) 233.996): 66.5041 and 63.4234 and 55.0575
